# Source: patent publication US11339124B2, “3-(benzylamino)-4-(cyclohexylamino)-n-(2-(piperazin-1-yl)ethyl)benzenesulfonamide derivatives and related ferrostatin-1 analogues as cell death inhibitors for treating e.g. stroke” (VIB VZW, priority 2018, dated 2022)
# Some entries share one result that the patent states for a list of compounds.
# System: IMR-32 Neuroblastoma cells
# Assay: Erastin-induced ferroptosis in IMR-32 neuroblastoma cells (Sytox Green cell death readout)
# Type: cell-based
# Conditions: IMR-32 cells, 10 μM erastin, compounds 1 nM to 1 μM, triplicate
# Protocol: In the present invention the potency of a compound inhibiting (or reducing) ferroptosis and/or oxytosis are determined in in vitro or in vivo assays. Typically in vitro assays are used to measure the potency of a candidate compound. Examples of suitable in vitro assays are cellular assays. One non-limiting example of an assay involves the use of the IMR-32 neuroblastoma cell line. The latter is stimulated to enter into ferroptosis upon stimulation with 10 μM erastin, a documented ferroptosis inducer (see for example Dixon et al (2012) Cell 149, 1060-1072 and ferroptosis inhibitors are evaluated for the prevention of erastin induced ferroptosis. Yet another assay is based the glutamate-induced cell death in the hippocampal cell line HT22 and ferroptosis/oxytosis inhibitors are evaluated for the prevention of cell death (see Henke N. et al (2013) Cell Death and Disease 4, e470). Still another assay is based on the sorafinib induced cell death (described to be iron dependent cell death) in hepatocellular carcinoma cells and ferroptosis inhibitors are evaluated for the prevention of cell death (see Louandre C. et al (2013) Int. J. Cancer 133, 1732). The calculated potency of a compound inhibiting ferroptosis and/or oxytosis is typically depicted as an IC50 value. Examples of suitable in vivo assays are typically pre-clinical disease models of for example mice for the diseases benefiting the application of ferroptosis and/or oxytosis inhibitors, as described herein. One non-limiting example of an in vivo assay is based on inducing liver damage in mice by administering the herbicide diquat dibromide monohydrate and ferroptosis inhibitors are evaluated based on reduced levels of liver transaminases in serum (see Ran Q et al (2004) J. Biol. Chem. 279, 53, 55137).
# The IC50 values for the individual compounds of the invention were determined in the neuroblastoma, IMR-32 cell line. In brief, IMR-32 cells were subjected to 10 μM erastin, the latter compound is known to induce ferroptosis. A concentration gradient (ranging from 1 nM to 1 μM) of the compounds was applied to the cells. These experiments were performed in a 96-well format (in triplicate), and cell death was analyzed in a fluorescent plate reader by use of a fluorescent cell death dye (1.5 μM Sytox Green). The IC50 values depicted in Table 1 are the concentration values for the individual compounds which are able to overcome ferroptosis.
row,SMILES,"IC50, antiferroptotic activity in response to erastin-induced ferroptosis"
1,"O=S(=O)(NCCN1CCOCC1)c1ccc(NC2CCCCC2)c(NCc2ccccc2)c1 [Compound 35, 3-(benzylamino)-4-(cyclohexylamino)-N-(2-morpholinoethyl)benzenesulfonamide]",more potent inhibition of erastin-induced ferroptosis than their corresponding analogues
2,"COCCNS(=O)(=O)c1ccc(NC2CCCCC2)c(NCc2ccccc2)c1 [Compound 36, 3-(benzylamino)-4-(cyclohexylamino)-N-(2-methoxyethyl)benzenesulfonamide]",more potent inhibition of erastin-induced ferroptosis than their corresponding analogues
3,"CNCCNS(=O)(=O)c1ccc(NC2CCCCC2)c(NCc2ccccc2)c1.Cl [Compound 37, 3-(benzylamino)-4-(cyclohexylamino)-N-(2-(methylamino)ethyl)benzenesulfonamide Hydrochloride]",more potent inhibition of erastin-induced ferroptosis than their corresponding analogues
4,"Cl.NCCNS(=O)(=O)c1ccc(NC2CCCCC2)c(NCc2ccccc2)c1 [Compound 38, N-(2-aminoethyl)-3-(benzylamino)-4-(cyclohexylamino)benzenesulfonamide Hydrochloride]",more potent inhibition of erastin-induced ferroptosis than their corresponding analogues
5,"Cl.O=S(=O)(NCCN1CCNCC1)c1ccc(NC2CCCCC2)c(NCc2ccccc2)c1 [Compound 39, 3-(benzylamino)-4-(cyclohexylamino)-N-(2-(piperazin-1-yl)ethyl)benzenesulfonamide Hydrochloride]",more potent inhibition of erastin-induced ferroptosis than their corresponding analogues
